This is one part of the list.
Tests used:
Assay in all cases: log2 fold change, soluble protein after heating vs DMSO (PISA); higher = thermal stabilisation; K562 cells, 10 uM, 30 min; active = over 0.2 and 3.5 SD of the protein, either way, in both replicates (recomputed)
[1] = compound: CS(=O)(=O)c1ccc(-c2cnc(N)c(C(=O)Nc3ccccc3)n2)cc1
Procedure, shortened: (§1)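 K562 cells at 2×10^6 cells/mL were given 10 μM compound for 30 min. Aliquots then went through 3 min of heating across 48°C-58°C, were pooled, and were extracted in PBS with 0.5% NP-40 at 4°C, and the supernatant after 21,000xg for 90 min was quantified by TMTpro 16plex LC-MS/MS with channel sums equalised. Thermal stability relative to control samples, from duplicates, is given as log2 fold change.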

Protein sequences, listed by entry. Tags and fused reporters are not part of them. Lines headed by an entry give the natural chain unless they say otherwise; changes in a name come on top.
UniProt Q96BP3: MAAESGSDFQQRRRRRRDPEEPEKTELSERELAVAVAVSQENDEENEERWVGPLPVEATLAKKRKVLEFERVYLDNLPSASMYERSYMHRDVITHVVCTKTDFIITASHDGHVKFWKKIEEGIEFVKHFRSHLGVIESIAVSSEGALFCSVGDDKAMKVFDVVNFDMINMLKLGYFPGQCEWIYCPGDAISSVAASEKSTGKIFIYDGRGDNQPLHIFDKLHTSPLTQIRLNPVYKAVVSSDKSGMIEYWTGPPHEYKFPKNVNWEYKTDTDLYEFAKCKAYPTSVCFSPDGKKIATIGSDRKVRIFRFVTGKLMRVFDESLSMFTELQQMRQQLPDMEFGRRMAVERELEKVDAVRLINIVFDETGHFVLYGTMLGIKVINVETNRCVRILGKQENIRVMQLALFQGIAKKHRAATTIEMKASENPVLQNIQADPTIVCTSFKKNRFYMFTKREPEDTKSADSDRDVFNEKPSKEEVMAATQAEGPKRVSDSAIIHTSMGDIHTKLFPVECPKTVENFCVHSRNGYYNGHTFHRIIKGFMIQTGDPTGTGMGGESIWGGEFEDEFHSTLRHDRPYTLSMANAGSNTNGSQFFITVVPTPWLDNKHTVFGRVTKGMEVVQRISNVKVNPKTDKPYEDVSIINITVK
UniProt P53041: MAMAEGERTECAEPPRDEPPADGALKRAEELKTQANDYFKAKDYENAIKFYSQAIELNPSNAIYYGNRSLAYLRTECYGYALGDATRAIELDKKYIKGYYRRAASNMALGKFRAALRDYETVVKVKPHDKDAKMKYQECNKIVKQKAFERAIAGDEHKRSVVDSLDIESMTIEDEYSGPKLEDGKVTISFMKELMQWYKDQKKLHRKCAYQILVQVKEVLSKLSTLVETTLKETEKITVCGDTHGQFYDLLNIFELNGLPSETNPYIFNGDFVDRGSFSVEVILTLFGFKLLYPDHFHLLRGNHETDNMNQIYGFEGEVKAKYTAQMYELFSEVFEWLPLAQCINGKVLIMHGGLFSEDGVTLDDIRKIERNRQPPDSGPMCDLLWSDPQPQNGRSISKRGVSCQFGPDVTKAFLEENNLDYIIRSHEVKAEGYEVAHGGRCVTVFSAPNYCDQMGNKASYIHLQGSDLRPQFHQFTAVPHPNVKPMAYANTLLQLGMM
UniProt P63151: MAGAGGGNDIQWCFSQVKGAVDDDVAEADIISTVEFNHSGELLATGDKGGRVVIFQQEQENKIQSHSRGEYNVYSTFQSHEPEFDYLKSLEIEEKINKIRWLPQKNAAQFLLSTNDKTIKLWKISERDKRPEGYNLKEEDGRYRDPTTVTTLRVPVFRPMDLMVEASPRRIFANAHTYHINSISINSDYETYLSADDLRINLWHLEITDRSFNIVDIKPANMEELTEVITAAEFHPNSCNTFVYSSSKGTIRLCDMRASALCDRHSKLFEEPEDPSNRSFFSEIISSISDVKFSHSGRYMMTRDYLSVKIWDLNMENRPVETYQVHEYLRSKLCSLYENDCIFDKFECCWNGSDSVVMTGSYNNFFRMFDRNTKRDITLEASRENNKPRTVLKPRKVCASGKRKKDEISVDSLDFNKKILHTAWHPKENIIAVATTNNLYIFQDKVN
UniProt Q9Y520: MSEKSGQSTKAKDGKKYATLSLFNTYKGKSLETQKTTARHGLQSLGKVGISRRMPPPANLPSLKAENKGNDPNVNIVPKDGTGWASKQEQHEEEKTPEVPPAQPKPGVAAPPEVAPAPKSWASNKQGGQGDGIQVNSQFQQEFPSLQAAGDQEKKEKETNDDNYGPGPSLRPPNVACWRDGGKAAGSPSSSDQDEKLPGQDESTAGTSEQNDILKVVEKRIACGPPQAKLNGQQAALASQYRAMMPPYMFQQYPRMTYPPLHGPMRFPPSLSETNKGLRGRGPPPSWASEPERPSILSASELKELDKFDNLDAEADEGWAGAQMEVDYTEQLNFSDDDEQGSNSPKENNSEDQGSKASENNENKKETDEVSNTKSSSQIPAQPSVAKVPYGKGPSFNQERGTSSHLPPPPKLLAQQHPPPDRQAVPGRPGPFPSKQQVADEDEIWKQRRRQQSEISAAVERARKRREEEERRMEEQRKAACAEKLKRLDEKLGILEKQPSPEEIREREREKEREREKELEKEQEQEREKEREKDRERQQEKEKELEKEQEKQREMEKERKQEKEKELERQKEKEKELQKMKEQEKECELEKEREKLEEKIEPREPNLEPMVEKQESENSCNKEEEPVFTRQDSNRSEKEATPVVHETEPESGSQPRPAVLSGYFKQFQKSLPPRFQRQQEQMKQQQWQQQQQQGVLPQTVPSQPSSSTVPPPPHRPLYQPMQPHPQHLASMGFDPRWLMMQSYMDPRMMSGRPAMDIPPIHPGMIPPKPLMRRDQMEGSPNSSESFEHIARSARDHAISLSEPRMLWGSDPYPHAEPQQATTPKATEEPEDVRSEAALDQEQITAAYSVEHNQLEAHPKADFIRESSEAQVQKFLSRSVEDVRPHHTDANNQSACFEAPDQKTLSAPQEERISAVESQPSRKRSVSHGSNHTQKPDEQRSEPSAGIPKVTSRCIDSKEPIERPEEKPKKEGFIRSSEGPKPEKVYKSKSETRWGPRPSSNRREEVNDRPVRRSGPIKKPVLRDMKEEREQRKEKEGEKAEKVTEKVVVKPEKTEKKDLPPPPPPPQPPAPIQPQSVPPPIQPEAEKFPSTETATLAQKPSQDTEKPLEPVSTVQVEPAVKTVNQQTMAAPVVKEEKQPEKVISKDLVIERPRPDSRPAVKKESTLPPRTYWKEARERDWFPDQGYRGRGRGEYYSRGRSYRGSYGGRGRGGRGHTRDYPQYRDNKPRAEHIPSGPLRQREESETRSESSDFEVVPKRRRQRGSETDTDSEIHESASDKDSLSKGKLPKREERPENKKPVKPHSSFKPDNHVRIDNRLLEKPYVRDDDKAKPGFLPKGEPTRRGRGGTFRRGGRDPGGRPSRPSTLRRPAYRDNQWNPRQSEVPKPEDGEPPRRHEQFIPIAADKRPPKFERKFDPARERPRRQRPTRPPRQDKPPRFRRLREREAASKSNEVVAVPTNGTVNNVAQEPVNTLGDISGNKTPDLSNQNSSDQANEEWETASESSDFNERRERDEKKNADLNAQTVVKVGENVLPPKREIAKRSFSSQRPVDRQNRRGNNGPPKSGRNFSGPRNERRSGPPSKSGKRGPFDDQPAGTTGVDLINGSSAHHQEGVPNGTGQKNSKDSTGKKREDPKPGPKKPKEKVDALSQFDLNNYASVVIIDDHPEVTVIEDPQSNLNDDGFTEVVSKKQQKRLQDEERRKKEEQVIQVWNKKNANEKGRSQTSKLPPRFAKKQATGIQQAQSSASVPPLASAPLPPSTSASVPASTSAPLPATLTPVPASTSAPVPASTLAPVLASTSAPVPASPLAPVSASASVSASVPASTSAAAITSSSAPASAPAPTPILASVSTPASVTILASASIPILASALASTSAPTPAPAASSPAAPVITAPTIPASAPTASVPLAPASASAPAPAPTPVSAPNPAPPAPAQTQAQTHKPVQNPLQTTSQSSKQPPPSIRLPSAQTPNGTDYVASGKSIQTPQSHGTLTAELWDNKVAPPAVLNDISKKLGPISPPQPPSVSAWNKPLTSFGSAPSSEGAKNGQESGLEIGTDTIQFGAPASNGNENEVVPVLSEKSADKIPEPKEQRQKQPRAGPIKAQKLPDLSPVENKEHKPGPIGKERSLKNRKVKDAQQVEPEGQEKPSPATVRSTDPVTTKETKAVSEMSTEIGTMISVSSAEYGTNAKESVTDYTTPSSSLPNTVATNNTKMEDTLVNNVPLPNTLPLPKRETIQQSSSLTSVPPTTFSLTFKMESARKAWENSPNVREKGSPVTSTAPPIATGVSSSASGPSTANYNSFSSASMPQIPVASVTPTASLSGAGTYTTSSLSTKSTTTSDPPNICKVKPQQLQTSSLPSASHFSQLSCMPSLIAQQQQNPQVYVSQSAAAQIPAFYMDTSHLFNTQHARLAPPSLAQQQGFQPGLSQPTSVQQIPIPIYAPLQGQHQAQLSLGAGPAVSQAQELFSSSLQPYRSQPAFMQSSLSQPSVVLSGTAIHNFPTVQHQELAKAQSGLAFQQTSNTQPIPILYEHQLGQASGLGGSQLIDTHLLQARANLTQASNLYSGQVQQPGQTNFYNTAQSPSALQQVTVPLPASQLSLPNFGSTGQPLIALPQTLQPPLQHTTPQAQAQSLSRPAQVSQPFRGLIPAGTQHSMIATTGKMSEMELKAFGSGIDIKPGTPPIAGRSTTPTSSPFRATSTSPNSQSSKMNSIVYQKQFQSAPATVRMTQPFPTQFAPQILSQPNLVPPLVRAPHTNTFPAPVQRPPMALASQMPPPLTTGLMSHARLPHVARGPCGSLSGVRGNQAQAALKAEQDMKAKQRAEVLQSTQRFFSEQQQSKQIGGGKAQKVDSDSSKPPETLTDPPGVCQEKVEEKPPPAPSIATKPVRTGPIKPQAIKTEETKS
UniProt P30153, whole entry, looked up: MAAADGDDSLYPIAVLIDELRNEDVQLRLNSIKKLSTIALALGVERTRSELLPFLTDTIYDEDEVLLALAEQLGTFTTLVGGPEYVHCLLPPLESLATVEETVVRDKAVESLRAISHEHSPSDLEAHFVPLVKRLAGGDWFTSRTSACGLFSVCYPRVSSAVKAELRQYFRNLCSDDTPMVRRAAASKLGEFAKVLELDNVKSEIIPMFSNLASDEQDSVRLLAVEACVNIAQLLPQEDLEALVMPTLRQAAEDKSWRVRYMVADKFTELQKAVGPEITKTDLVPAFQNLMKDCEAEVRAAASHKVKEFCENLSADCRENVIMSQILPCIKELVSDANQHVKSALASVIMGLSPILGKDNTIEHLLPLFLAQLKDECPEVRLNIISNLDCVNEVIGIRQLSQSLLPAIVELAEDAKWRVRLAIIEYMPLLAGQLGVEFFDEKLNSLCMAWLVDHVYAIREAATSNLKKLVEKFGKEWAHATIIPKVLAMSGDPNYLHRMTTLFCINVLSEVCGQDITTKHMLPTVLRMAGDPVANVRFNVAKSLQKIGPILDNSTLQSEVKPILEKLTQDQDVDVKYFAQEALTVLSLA
UniProt P78395, whole entry, looked up: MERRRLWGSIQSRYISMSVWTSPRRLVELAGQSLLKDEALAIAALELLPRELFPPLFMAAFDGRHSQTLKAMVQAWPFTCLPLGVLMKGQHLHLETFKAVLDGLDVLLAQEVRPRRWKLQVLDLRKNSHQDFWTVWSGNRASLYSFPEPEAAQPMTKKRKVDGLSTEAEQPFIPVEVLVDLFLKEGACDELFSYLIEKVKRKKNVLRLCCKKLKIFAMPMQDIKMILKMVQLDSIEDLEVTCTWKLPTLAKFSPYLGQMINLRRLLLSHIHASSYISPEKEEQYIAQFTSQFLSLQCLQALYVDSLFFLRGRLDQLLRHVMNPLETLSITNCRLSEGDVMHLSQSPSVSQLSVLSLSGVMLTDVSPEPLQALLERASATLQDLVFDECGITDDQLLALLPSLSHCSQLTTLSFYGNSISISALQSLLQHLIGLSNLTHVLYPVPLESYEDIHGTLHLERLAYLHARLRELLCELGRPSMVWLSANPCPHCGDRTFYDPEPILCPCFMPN
UniProt P30154, whole entry, looked up: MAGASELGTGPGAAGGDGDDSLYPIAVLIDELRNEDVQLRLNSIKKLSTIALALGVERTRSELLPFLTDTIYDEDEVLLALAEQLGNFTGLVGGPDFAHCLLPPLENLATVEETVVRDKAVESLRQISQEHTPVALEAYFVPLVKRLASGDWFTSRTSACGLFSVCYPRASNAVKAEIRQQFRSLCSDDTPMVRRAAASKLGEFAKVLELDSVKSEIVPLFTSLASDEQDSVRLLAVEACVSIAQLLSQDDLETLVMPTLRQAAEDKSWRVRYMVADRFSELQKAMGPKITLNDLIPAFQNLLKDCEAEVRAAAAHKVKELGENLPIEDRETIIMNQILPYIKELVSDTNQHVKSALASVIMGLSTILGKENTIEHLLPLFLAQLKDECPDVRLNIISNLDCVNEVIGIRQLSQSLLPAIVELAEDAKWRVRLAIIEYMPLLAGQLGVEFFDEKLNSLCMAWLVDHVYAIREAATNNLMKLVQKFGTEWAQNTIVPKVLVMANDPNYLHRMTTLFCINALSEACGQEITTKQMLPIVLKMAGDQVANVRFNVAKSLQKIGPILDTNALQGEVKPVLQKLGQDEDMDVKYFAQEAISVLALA
UniProt P13861, whole entry, looked up: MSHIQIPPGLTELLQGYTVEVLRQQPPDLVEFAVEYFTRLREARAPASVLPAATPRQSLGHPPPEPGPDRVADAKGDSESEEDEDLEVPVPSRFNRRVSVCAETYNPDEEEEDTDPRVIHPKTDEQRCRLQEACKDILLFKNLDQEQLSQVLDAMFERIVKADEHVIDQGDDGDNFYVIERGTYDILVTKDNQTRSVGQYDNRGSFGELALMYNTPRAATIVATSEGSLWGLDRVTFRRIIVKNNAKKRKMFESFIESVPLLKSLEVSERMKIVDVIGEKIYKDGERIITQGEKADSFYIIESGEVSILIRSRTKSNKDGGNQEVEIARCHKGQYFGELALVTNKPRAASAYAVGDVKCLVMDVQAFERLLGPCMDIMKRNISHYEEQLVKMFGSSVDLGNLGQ

crizotinib = compound: C[C@@H](Oc1cc(-c2cnn(C3CCNCC3)c2)cnc1N)c1c(Cl)ccc(F)c1Cl [crizotinib]
Procedure, shortened: as §1

[2] = compound: C[C@@H]1COCCN1C2=NC(=NC(=C2)C3(CC3)S(=O)(=O)C)C4=C5C=CNC5=CC=C4
Procedure, shortened: as §1

[3] = compound: C[C@H](C1=CC=C(C=C1)C(=O)NC2=C3C=CNC3=NC=C2)N
Procedure, shortened: as §1

duvelisib = compound: C[C@H](Nc1ncnc2nc[nH]c12)c1cc2cccc(Cl)c2c(=O)n1-c1ccccc1 [duvelisib]
Procedure, shortened: as §1

gandotinib = compound: Cc1cc(Nc2cc(CN3CCOCC3)c3nc(C)c(Cc4ccc(Cl)cc4F)n3n2)n[nH]1 [gandotinib]
Procedure, shortened: as §1

tozasertib = compound: Cc1cc(Nc2cc(N3CCN(C)CC3)nc(Sc3ccc(NC(=O)C4CC4)cc3)n2)n[nH]1 [tozasertib]
Procedure, shortened: as §1

[4] = compound: Cc1cc(SCc2sc(-c3ccc(C(F)(F)F)cc3)nc2C)ccc1OCC(=O)O
Procedure, shortened: as §1

doramapimod = compound: Cc1ccc(-n2nc(C(C)(C)C)cc2NC(=O)Nc2ccc(OCCN3CCOCC3)c3ccccc23)cc1 [doramapimod]
Procedure, shortened: as §1

ispinesib = compound: Cc1ccc(C(=O)N(CCCN)[C@@H](c2nc3cc(Cl)ccc3c(=O)n2Cc2ccccc2)C(C)C)cc1 [ispinesib]
Procedure, shortened: as §1

bafetinib = compound: Cc1ccc(NC(=O)c2ccc(CN3CC[C@H](N(C)C)C3)c(C(F)(F)F)c2)cc1Nc1nccc(-c2cncnc2)n1 [bafetinib]
Procedure, shortened: as §1

[5] = compound: Cc1cccc(CC(=O)N2CCc3c2ccc(-c2cn(C)c4ncnc(N)c24)c3F)n1
Procedure, shortened: as §1

nilotinib = compound: Cc1cn(-c2cc(NC(=O)c3ccc(C)c(Nc4nccc(-c5cccnc5)n4)c3)cc(C(F)(F)F)c2)cn1 [nilotinib]
Procedure, shortened: as §1

[6] = compound: Cc1nc(Nc2n[nH]c3c2CN(C(=O)N[C@H](CN(C)C)c2ccccc2)C3(C)C)c2sccc2n1
Procedure, shortened: as §1

dasatinib = compound: Cc1nc(Nc2ncc(C(=O)Nc3c(C)cccc3Cl)s2)cc(N2CCN(CCO)CC2)n1 [dasatinib]
Procedure, shortened: as §1

[7] = compound: Cc1ncc(-c2ccnc(Nc3ccc(S(C)(=O)=O)cc3)n2)n1C(C)C
Procedure, shortened: as §1

[8] = compound: Cn1cc(-c2ccc3c(c2)CCN3C(=O)Cc2cccc(C(F)(F)F)c2)c2c(N)ncnc21
Procedure, shortened: as §1

[9] = compound: Cn1cc(-c2ccc3nnc(C(F)(F)c4ccc5ncccc5c4)n3n2)cn1
Procedure, shortened: as §1

tipifarnib = compound: Cn1cncc1[C@@](N)(c1ccc(Cl)cc1)c1ccc2c(c1)c(-c1cccc(Cl)c1)cc(=O)n2C [tipifarnib]
Procedure, shortened: as §1

mubritinib = compound: FC(F)(F)c1ccc(/C=C/c2nc(COc3ccc(CCCCn4ccnn4)cc3)co2)cc1 [mubritinib]
Procedure, shortened: as §1

Row | Target | log2 fold change [1] | log2 fold change (crizotinib) | log2 fold change [2] | log2 fold change [3] | log2 fold change (duvelisib) | log2 fold change (gandotinib) | log2 fold change (tozasertib) | log2 fold change [4] | log2 fold change (doramapimod) | log2 fold change (ispinesib) | log2 fold change (bafetinib) | log2 fold change [5] | log2 fold change (nilotinib) | log2 fold change [6] | log2 fold change (dasatinib) | log2 fold change [7] | log2 fold change [8] | log2 fold change [9] | log2 fold change (tipifarnib) | log2 fold change (mubritinib)
1 | PPP3CB isoform 4 (UniProt P16298) | inactive: -0.005 | inactive: 0.014 | inactive: 0.06 | inactive: 0.061 | inactive: 0.024 | inactive: -0.155 | inactive: -0.011 | inactive: -0.021 | inactive: 0.031 | inactive: -0.005 | inactive: -0.064 | inactive: -0.035 | inactive: -0.122 | inactive: 0.011 | inactive: -0.083 | inactive: -0.055 | inactive: 0.021 | inactive: 0.017 | inactive: 0.017 | inactive: 0.051
2 | PRRC2A (UniProt P48634) | inactive: -0.029 | inactive: 0.042 | inactive: -0.259 | inactive: 0.176 | inactive: -0.077 | inactive: 0.208 | inactive: -0.041 | inactive: -0.025 | inactive: 0.096 | inactive: -0.045 | inactive: 0.099 | inactive: -0.024 | inactive: 0.049 | inactive: 0.043 | inactive: 0.085 | inactive: -0.028 | inactive: -0.088 | inactive: -0.032 | inactive: 0.101 | inactive: -0.068
3 | PPWD1 (UniProt Q96BP3) | inactive: 0.013 | inactive: 0.058 | inactive: 0.063 | inactive: -0.061 | inactive: 0.061 | inactive: 0.001 | inactive: -0.016 | inactive: 0.045 | inactive: -0.072 | inactive: 0.019 | inactive: -0.021 | inactive: 0.01 | inactive: -0.041 | inactive: -0.01 | inactive: -0.115 | inactive: 0.07 | inactive: 0.057 | inactive: 0.002 | inactive: -0.004 | inactive: 0.05
4 | PPP5C (UniProt P53041) | inactive: 0.054 | inactive: 0.013 | inactive: 0.041 | inactive: -0.042 | inactive: 0.026 | inactive: -0.032 | inactive: -0.007 | inactive: -0.01 | inactive: -0.037 | inactive: 0.028 | inactive: -0.045 | inactive: 0.013 | inactive: -0.018 | inactive: 0.001 | inactive: -0.071 | inactive: 0.053 | inactive: 0.041 | inactive: 0.007 | inactive: -0.034 | inactive: -0.018
5 | PPP2R2A isoform 2 (UniProt P63151) | inactive: 0.046 | inactive: 0.002 | inactive: 0.002 | inactive: -0.058 | inactive: 0.036 | inactive: -0.042 | inactive: -0.03 | inactive: -0.035 | inactive: -0.025 | inactive: 0.016 | inactive: -0.026 | inactive: 0.012 | inactive: -0.003 | inactive: 0.001 | inactive: 0.001 | inactive: -0.012 | inactive: 0.027 | inactive: 0.029 | inactive: 0.001 | inactive: 0.007
6 | PPM1F (UniProt P49593) | inactive: 0.032 | inactive: -0.104 | inactive: 0.069 | inactive: -0.055 | inactive: 0.001 | inactive: -0.065 | inactive: -0.025 | inactive: 0.019 | inactive: -0.017 | inactive: -0.02 | inactive: 0.027 | inactive: 0.038 | inactive: 0.016 | inactive: 0.038 | inactive: -0.093 | inactive: 0.051 | inactive: 0.036 | inactive: 0.041 | inactive: -0.02 | inactive: 0.137
7 | PQBP1 (UniProt O60828) | inactive: 0.011 | inactive: 0.03 | inactive: -0.031 | inactive: -0.148 | inactive: 0.025 | inactive: 0.008 | inactive: -0.052 | inactive: -0.045 | inactive: -0.033 | inactive: 0.004 | inactive: -0.03 | inactive: -0.045 | inactive: 0.01 | inactive: 0.004 | inactive: 0.068 | inactive: 0.01 | inactive: -0.027 | inactive: -0.031 | inactive: 0.087 | inactive: -0.003
8 | PRRC2C isoform 7 (UniProt Q9Y520) | inactive: -0.034 | inactive: 0.051 | inactive: -0.284 | inactive: 0.228 | inactive: -0.109 | inactive: 0.236 | inactive: -0.017 | inactive: -0.018 | inactive: 0.113 | inactive: -0.062 | inactive: 0.107 | inactive: -0.01 | inactive: 0.02 | inactive: 0.097 | inactive: 0.151 | inactive: -0.003 | inactive: -0.176 | inactive: -0.102 | inactive: 0.109 | inactive: -0.073
9 | PRKAG2 (UniProt Q9UGJ0) | inactive: 0.016 | inactive: -0.188 | inactive: 0.054 | inactive: -0.051 | inactive: 0.065 | inactive: -0.171 | inactive: -0.006 | inactive: 0.017 | inactive: -0.014 | inactive: -0.023 | inactive: -0.079 | inactive: 0.05 | inactive: -0.08 | inactive: -0.196 | inactive: -0.022 | inactive: -0.013 | inactive: 0.055 | inactive: 0.02 | inactive: 0.04 | inactive: -0.05
10 | PPP2R1A (UniProt P30153) | inactive: 0.024 | inactive: 0.022 | inactive: 0.067 | inactive: -0.026 | inactive: 0.031 | inactive: -0.016 | inactive: 0.011 | inactive: 0.024 | inactive: -0.016 | inactive: 0.067 | inactive: -0.029 | inactive: 0.01 | inactive: -0.006 | inactive: -0.01 | inactive: -0.018 | inactive: -0.004 | inactive: 0.057 | inactive: -0.007 | inactive: -0.001 | inactive: 0.043
11 | PRDX6 (UniProt P30041) | inactive: 0.034 | inactive: 0.022 | inactive: 0.039 | inactive: -0.029 | inactive: 0.024 | inactive: -0.021 | inactive: 0.001 | inactive: -0.003 | inactive: -0.006 | inactive: 0.026 | inactive: -0.043 | inactive: -0.023 | inactive: -0.014 | inactive: -0.014 | inactive: -0.014 | inactive: -0.015 | inactive: 0.105 | inactive: 0.008 | inactive: -0.022 | inactive: 0.019
12 | PRAME (UniProt P78395) | inactive: -0.159 | inactive: -0.087 | inactive: -0.114 | inactive: 0.125 | inactive: -0.092 | inactive: -0.036 | inactive: 0.049 | inactive: 0.052 | inactive: 0.06 | inactive: -0.034 | inactive: 0.038 | inactive: -0.055 | inactive: -0.02 | inactive: -0.056 | inactive: 0.008 | inactive: -0.05 | inactive: -0.056 | inactive: -0.025 | inactive: -0.032 | inactive: -0.062
13 | PPP2R1B isoform 2 (UniProt P30154) | inactive: 0.005 | inactive: -0.096 | inactive: 0.04 | inactive: 0.024 | inactive: 0.005 | inactive: 0.059 | inactive: 0.015 | inactive: 0.028 | inactive: 0.076 | inactive: -0.008 | inactive: 0.008 | inactive: -0.016 | inactive: 0.026 | inactive: -0.06 | inactive: -0.04 | inactive: -0.019 | inactive: 0.039 | inactive: -0.027 | inactive: 0.046 | inactive: 0.064
14 | PPP1R8 (UniProt Q12972) | inactive: -0.018 | inactive: -0.036 | inactive: 0.042 | inactive: -0.048 | inactive: 0.041 | inactive: -0.047 | inactive: -0.019 | inactive: -0.003 | inactive: 0.03 | inactive: 0.032 | inactive: -0.005 | inactive: 0.051 | inactive: -0.015 | inactive: -0.037 | inactive: -0.055 | inactive: 0.015 | inactive: 0.031 | inactive: -0.035 | inactive: -0.005 | inactive: 0.128
15 | PPP6C isoform 3 (UniProt O00743) | inactive: 0.027 | inactive: 0.035 | inactive: 0.02 | inactive: 0.007 | inactive: 0 | inactive: 0.014 | inactive: 0 | inactive: -0.056 | inactive: -0.049 | inactive: -0.017 | inactive: -0.054 | inactive: -0.021 | inactive: 0.009 | inactive: -0.008 | inactive: 0.064 | inactive: -0.004 | inactive: -0.038 | inactive: 0.011 | inactive: 0.014 | inactive: 0.053
16 | PRKAR2A (UniProt P13861) | inactive: 0.046 | inactive: -0.038 | inactive: 0.089 | inactive: -0.159 | – | inactive: -0.02 | – | inactive: 0.023 | inactive: 0.03 | inactive: -0.056 | inactive: 0.029 | inactive: 0.007 | inactive: 0.139 | active: -0.606 | inactive: -0.055 | inactive: -0.026 | inactive: 0.07 | inactive: 0.102 | inactive: 0.004 | inactive: 0.042

An excerpt of these results, comma-delimited:
Row,Target,log2 fold change [1],log2 fold change (crizotinib),log2 fold change [2],log2 fold change [3],log2 fold change (duvelisib),log2 fold change (gandotinib),log2 fold change (tozasertib),log2 fold change [4],log2 fold change (doramapimod),log2 fold change (ispinesib),log2 fold change (bafetinib),log2 fold change [5],log2 fold change (nilotinib),log2 fold change [6],log2 fold change (dasatinib),log2 fold change [7],log2 fold change [8],log2 fold change [9],log2 fold change (tipifarnib),log2 fold change (mubritinib)
11,PRDX6 (UniProt P30041),inactive: 0.034,inactive: 0.022,inactive: 0.039,inactive: -0.029,inactive: 0.024,inactive: -0.021,inactive: 0.001,inactive: -0.003,inactive: -0.006,inactive: 0.026,inactive: -0.043,inactive: -0.023,inactive: -0.014,inactive: -0.014,inactive: -0.014,inactive: -0.015,inactive: 0.105,inactive: 0.008,inactive: -0.022,inactive: 0.019
12,PRAME (UniProt P78395),inactive: -0.159,inactive: -0.087,inactive: -0.114,inactive: 0.125,inactive: -0.092,inactive: -0.036,inactive: 0.049,inactive: 0.052,inactive: 0.06,inactive: -0.034,inactive: 0.038,inactive: -0.055,inactive: -0.02,inactive: -0.056,inactive: 0.008,inactive: -0.05,inactive: -0.056,inactive: -0.025,inactive: -0.032,inactive: -0.062

Source: the supplement of paper PMC10849652
